Results are given in words; binding and its absence hold for the method and conditions named. In cells and extracts the contact can be indirect. Here binding means that the protein was enriched with, or labelled near, the bait; the list need not be complete.
T1: CD20 (MS4A1), endogenous in BJAB B cells (human (endogenous in BJAB)) (UniProt P11836)
T1 sequence: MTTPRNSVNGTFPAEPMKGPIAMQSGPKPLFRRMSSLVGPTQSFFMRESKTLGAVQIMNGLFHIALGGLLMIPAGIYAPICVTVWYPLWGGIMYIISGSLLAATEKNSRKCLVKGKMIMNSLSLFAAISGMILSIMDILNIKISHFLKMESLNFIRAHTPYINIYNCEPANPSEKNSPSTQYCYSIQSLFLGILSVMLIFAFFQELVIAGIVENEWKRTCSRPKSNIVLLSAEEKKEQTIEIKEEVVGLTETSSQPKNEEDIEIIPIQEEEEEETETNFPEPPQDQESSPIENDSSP


Biological target: T1, CD20 (MS4A1), endogenous in BJAB B cells (human (endogenous in BJAB))
Assay: affinity purification with mass spectrometry; IP of endogenous CD20 from BJAB lysates (1% Brij97 or 1% digitonin, 10 mM Tris-HCl pH 7.5, 150 mM NaCl, 2 mM MgCl2, 2 mM CaCl2) with anti-human CD20 antibody and Protein G Dynabeads, 4 °C; IgG2a isotype control; LC-MS/MS, iBAQ

Binder | binding
CD70, endogenous in BJAB B cells (protein, UniProt P32970 1-193) MPEEGSGCSVRRRPYGCVLRAALVPLVAGLVICLVVCIQRFAQAQQQLPLESLGWDVAELQLNHTGPQQDPRLYWQGGPALGRSFLHGPELDKGQLRIHRDGIYMVHIQVTLAICSSTTASRHHPTTLAVGICSPASRSISLLRLSFHQGCTIASQRLTPLARGDTLCTNLTGTLLPSRNTDETFFGVQWVRP | binds
tetraspanin CD37, endogenous in BJAB B cells (protein, UniProt P11049 1-281) MSAQESCLSLIKYFLFVFNLFFFVLGSLIFCFGIWILIDKTSFVSFVGLAFVPLQIWSKVLAISGIFTMGIALLGCVGALKELRCLLGLYFGMLLLLFATQITLGILISTQRAQLERSLRDVVEKTIQKYGTNPEETAAEESWDYVQFQLRCCGWHYPQDWFQVLILRGNGSEAHRVPCSCYNLSATNDSTILDKVILPQLSRLGHLARSRHSADICAVPAESHIYREGCAQGLQKWLHNNLISIVGICLGVGLLELGFMTLSIFLCRNLDHVYNRLARYR | binds

Reference: paper PMC12037035
